For some of these results: Negatives hold for the conditions tested. For some of these results: At least one verdict was read from the data and is not stated in words by the source. For some of these results: Tags and fusion partners may be left off the protein sequences shown. For some of these results: The comparison behind a weaker result is the experiment's own reference, which may not be listed here. For some of these results: For at least one entry, the source does not settle the construct or the ends of the probe.
Key:
Assay in all cases: EMSA
[1] = target: T1, CENPC exon 9-12 (Zea mays) (UniProt Q9XHE1); conditions: 10 mM Tris pH 7.5, 50 mM NaCl, 0.5 mM DTT, 0.5 mM EDTA, 1 mM MgCl2, 4% glycerol, 20 µl, on ice 20 min, 5% PAGE, recombinant protein, residues 503-624, label: 33P 5' end label (unlabeled as competitor)
T1 sequence (looked up): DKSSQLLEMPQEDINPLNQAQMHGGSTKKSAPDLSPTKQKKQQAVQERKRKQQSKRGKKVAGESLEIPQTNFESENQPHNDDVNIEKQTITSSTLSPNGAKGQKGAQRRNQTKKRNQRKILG

[2] = test system: GST; conditions: 10 mM Tris pH 7.5, 50 mM NaCl, 0.5 mM DTT, 0.5 mM EDTA, 1 mM MgCl2, 4% glycerol, 20 µl, on ice 20 min; 5% PAGE; recombinant protein; label: 33P 5' end label (unlabeled as competitor)
[3] = target: T2, CENPC exon 9-10 peptide (Zea mays) (UniProt Q9XHE1); conditions: 10 mM Tris pH 7.5, 50 mM NaCl, 0.5 mM DTT, 0.5 mM EDTA, 1 mM MgCl2, 4% glycerol, 20 µl, on ice 20 min, 5% PAGE, residues 503-563, label: 33P 5' end label (unlabeled as competitor)
T2 sequence (looked up): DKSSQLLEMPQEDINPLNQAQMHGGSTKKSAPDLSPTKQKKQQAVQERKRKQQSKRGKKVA

[4] = test system: CENPC exon 12 peptide (Zea mays); conditions: 10 mM Tris pH 7.5, 50 mM NaCl, 0.5 mM DTT, 0.5 mM EDTA, 1 mM MgCl2, 4% glycerol, 20 µl, on ice 20 min, 5% PAGE, label: 33P 5' end label (unlabeled as competitor)
[5] = target: T3, CENPC full length (Zea mays) (UniProt Q9XHE1); conditions: 10 mM Tris pH 7.5, 50 mM NaCl, 0.5 mM DTT, 0.5 mM EDTA, 1 mM MgCl2, 4% glycerol, 20 µl, on ice 20 min; 5% PAGE; recombinant protein; residues 1-701; protein details: His (pET28a); label: 33P 5' end label
T3 sequence (looked up): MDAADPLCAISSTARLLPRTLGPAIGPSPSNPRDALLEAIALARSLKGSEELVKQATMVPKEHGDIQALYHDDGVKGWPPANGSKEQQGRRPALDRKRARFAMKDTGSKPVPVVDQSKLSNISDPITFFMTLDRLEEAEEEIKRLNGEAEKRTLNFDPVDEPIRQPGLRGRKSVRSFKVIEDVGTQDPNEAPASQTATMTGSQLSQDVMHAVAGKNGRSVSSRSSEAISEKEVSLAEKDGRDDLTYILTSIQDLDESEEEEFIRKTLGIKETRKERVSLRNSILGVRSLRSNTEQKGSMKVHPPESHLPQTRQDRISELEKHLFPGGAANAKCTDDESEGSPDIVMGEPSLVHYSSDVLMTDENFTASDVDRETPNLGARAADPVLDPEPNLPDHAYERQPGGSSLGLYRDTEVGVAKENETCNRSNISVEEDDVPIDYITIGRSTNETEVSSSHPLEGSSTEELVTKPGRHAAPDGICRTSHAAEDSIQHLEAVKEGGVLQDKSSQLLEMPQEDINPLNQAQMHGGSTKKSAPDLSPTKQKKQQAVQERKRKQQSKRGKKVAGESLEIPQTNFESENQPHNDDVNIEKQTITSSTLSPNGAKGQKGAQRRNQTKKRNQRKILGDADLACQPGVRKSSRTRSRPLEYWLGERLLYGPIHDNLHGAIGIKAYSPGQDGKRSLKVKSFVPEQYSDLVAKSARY

“AATGGGTGACGTGCGGCAACGAAATTGCGCGAAACCACCCCAAA (double strand) [CentC 44 bp DSDNA]”: no binding ([1]; no SSRNA); no binding ([1]; plus 10 nt RNA CCGUUUUCAG); binds ([1]; plus 24 nt SSDNA). “AATGGGTGACGTGCGGCAACGAAATTGCGCGAAACCACCCCAAA (double strand) [CentC 44 bp DSDNA]”: binds ([1]; plus 24 nt SSRNA CCGUUUUCAGAAUGGGUGACGUGC); binds ([1]; plus 48 nt poly-GT SSDNA); no binding ([1]; plus 167 nt CentC RNA). “AATGGGTGACGTGCGGCAACGAAATTGCGCGAAACCACCCCAAA (double strand) [CentC 44 bp DSDNA]”: no binding ([1]; plus unlabeled 44 bp DSDNA); no binding [2]; no binding ([3]; no SSRNA). “AATGGGTGACGTGCGGCAACGAAATTGCGCGAAACCACCCCAAA (double strand) [CentC 44 bp DSDNA]”: binds ([3]; plus 24 nt SSRNA); no binding ([4]; no SSRNA); binds ([4]; plus 24 nt SSRNA).
“CCGUUUUCAGAAUGGGUGACGUGC [CentC 24 nt SSRNA]”: binds more weakly [5].
